Experimental data published in PubChem BioAssay AID540276 (National Center for Advancing Translational Sciences (NCATS), 2011).
In all, about 300,000 compounds went through this assay and about 5,400 (1.8%) were called active. The shares of active, inactive and inconclusive entries below differ from those in the screen. Calls come from the whole dose curve; tested in HEK293 cells. A potency beside an inconclusive call is a rough fit, not a confirmed value.

experiment: qHTS for inhibitors of binding or entry into cells for Marburg Virus; conditions: Marburg virus pseudotyped entry inhibition, cell reporter; series mostly up to 37.8 µM
Potency is the fitted concentration of half-maximal effect.

SMILES	Potency
COc1ccccc1N1CCN(C(=O)/C=C/c2cccs2)CC1	inconclusive: 0.447 µM [inhibitor, partial curve, poor fit]
CCOC(=O)N=S(=O)(Oc1ccc([N+](=O)[O-])cc1)c1ccc(Cl)cc1 (stereo not given)	inconclusive: 22.4 µM [inhibitor, single point]
CCCN(CCC)c1nc(N)c(C#N)c(CC#N)c1C#N	inconclusive: 35.5 µM [inhibitor, single point]
O=C(CSc1ccc([N+](=O)[O-])cn1)Nc1ccccc1N1CCOCC1	inactive
COc1ccc(S(=O)(=O)N2CCN(Cc3ccc(Cl)cc3)CC2)cc1	inconclusive: 20.6 µM [inhibitor, single point]
CC(C)Cn1cc(C(=O)N2CCC3(CC2)OCCO3)c2c3ccccc3n(C)c2c1=O	inconclusive: 11.6 µM [inhibitor, partial curve, poor fit]
Cc1c(C(=O)N2CCN(c3ccccc3)CC2)oc2c(F)cccc12	inconclusive: 15.8 µM [activator, single point]
C/C(Nc1ccc(C)cc1)=C(/C#N)C(N)=O	inactive
COc1ccccc1C(=O)Nc1ccc2c3c(cccc13)CC2	inconclusive: 3.98 µM [activator, full curve, poor fit]
CCN(CC)c1ccc(NC(=O)Nc2ccccc2)cc1	inconclusive: 35.5 µM [inhibitor, single point]
COc1ccc(/C=C2\SC(N3CCc4ccccc4C3)=NC2=O)cc1	inconclusive: 35.5 µM [inhibitor, single point]
CCCCC(NC(C)=O)c1nc2ccccc2n1CCCC (stereo not given)	inconclusive: 0.562 µM [inhibitor, full curve, poor fit]
O=C(CN(Cc1ccc(F)cc1)C(=O)c1csnn1)NC1CCCC1	inconclusive: 3.55 µM [inhibitor, partial curve, poor fit]
CN(CCCNC(=O)C1CCC(=O)N1Cc1ccccc1Cl)c1ccccc1 (stereo not given)	inconclusive: 1.16 µM [inhibitor, single point]
CN(C)CCC(O)(c1ccccc1)c1ccccc1	inconclusive: 23.1 µM [inhibitor, partial curve, poor fit]
O=C(COc1ccc(Cl)cc1)Nc1cnn(Cc2c(Cl)cccc2Cl)c1	inconclusive: 0.562 µM [activator, partial curve, poor fit]
CC(C)C1NC(C(=O)O)Cc2c1[nH]c1ccccc21 (stereo not given)	inconclusive: 35.5 µM [activator, single point]
O=C(CSc1nc2ccccc2c(=O)n1-c1ccccc1)NCC1CCCO1 (stereo not given)	inactive
O=C1OCc2ccc(NC(=O)c3c(F)cccc3Cl)cc21	inconclusive: 2 µM [activator, full curve, poor fit]
O=C(c1cccc(C(=O)N2CCN(c3ccccc3F)CC2)c1)N1CCN(c2ccccc2F)CC1	inactive

SMILES	Potency
CCOC(=O)C1CCN(c2cc(C)nc3ccc(OC)cc23)CC1	inconclusive: 35.5 µM [inhibitor, single point]
C/C(=N\Nc1nccnc1Cl)c1ccc([N+](=O)[O-])cc1	inactive
COc1ccc(-n2c(-c3ccco3)nc3c(cnn3-c3ccc(Cl)cc3)c2=O)cc1	inconclusive: 12.6 µM [inhibitor, partial curve]
Cc1ccc(S(=O)(=O)N2CCCCC2)cc1C(=O)NCCC1=CCCCC1	inconclusive: 5.01 µM [inhibitor, partial curve, poor fit]
Cc1cc(Cl)ccc1NC(=S)NCc1ccc(S(N)(=O)=O)cc1	inconclusive: 22.4 µM [inhibitor, single point]
CC(C)OCCCn1c(=NC(=O)c2cccs2)c(C#N)cc2c(=O)n3ccccc3nc21	inconclusive: 35.5 µM [inhibitor, single point]
Cc1ccccc1CNC(=O)C(C)N(c1ccccc1)S(C)(=O)=O (stereo not given)	inactive
CC1CCN(c2nc(CN3CCCCC3)nc3scc(-c4ccccc4)c23)CC1	inconclusive: 12.6 µM [inhibitor, partial curve, poor fit]
Cc1ccc(COc2ccccc2-c2cc(C(=O)N/N=C/c3cccnc3)[nH]n2)cc1	inconclusive: 7.08 µM [inhibitor, full curve, poor fit]
Cc1oc(-c2cccc(Cl)c2)nc1CS(=O)(=O)CC(=O)NC(C)CCc1ccccc1 (stereo not given)	inconclusive: 10 µM [inhibitor, partial curve, poor fit]
CC12Cc3ccc4ccccc4c3C=C1C[N+](C)(C)C2 (stereo not given)	inconclusive: 0.112 µM [activator, full curve, poor fit]
Cc1ccc(C(=O)N/N=c2\sc3ccccc3n2C)cc1	inactive
O=c1oc(-c2ccccc2F)nc2c1cnn2-c1ccccc1	inconclusive: 16.4 µM [inhibitor, partial curve, poor fit]
CC(C)NC(=S)N/N=C/c1sc(N2CCCCC2)nc1-c1cccs1	inconclusive: 35.5 µM [inhibitor, single point]
CCOc1ccccc1CNC(=O)c1ccc2c(c1)N(Cc1ccc(C)cc1)CCS2	inconclusive: 7.94 µM [inhibitor, partial curve, poor fit]
O=C(C1CCCN(S(=O)(=O)c2ccccc2)C1)N1CCN(c2ncccn2)CC1 (stereo not given)	inconclusive: 35.5 µM [inhibitor, single point]
Cc1nc(N(C)C)ncc1C(=O)O	inconclusive: 2.51 µM [activator, partial curve, poor fit]
CN(C)S(=O)(=O)c1cc(NC(=O)CN2CCN(c3ccccc3)CC2)ccc1Cl	inconclusive: 1.26 µM [activator, partial curve, poor fit]
CCC(=O)Nc1c(-c2ccc(C)cc2)c(=O)c2ccccc2n1C	inconclusive: 4.47 µM [inhibitor, partial curve, poor fit]
COc1cc(C(=O)NCCCc2nc3ccccc3n2Cc2cc(C)ccc2C)cc(OC)c1OC	inconclusive: 5.8 µM [inhibitor, single point]

Pulled by structure from the list above, 2 records:
SMILES	Potency
CN(C)S(=O)(=O)c1cc(NC(=O)CN2CCN(c3ccccc3)CC2)ccc1Cl	inconclusive: 1.26 µM [activator, partial curve, poor fit]
Cc1oc(-c2cccc(Cl)c2)nc1CS(=O)(=O)CC(=O)NC(C)CCc1ccccc1 (stereo not given)	inconclusive: 10 µM [inhibitor, partial curve, poor fit]
